# These are yes or no findings as the source states them, for the method shown. Some results given as binding are weak or reduced against the parent protein; the word gives no strength.
# Amino acid sequences for entries named in this document (tags omitted). Residues count along the entry.
# UniProt P21802, residues 22-377: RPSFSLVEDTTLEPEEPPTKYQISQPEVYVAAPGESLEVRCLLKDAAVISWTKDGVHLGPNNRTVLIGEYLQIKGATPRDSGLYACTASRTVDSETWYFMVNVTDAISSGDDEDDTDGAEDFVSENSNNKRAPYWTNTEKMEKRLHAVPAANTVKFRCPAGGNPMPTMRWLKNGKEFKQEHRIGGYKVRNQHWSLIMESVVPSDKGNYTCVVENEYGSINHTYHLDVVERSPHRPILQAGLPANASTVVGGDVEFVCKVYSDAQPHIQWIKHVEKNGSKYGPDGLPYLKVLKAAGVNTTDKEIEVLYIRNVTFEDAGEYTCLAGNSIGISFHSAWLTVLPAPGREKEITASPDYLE
# Target: T1, aminoacyl-tRNA synthetase-interacting multifunctional protein1 (AIMP1), recombinant protein (UniProt Q12904)
# T1 sequence: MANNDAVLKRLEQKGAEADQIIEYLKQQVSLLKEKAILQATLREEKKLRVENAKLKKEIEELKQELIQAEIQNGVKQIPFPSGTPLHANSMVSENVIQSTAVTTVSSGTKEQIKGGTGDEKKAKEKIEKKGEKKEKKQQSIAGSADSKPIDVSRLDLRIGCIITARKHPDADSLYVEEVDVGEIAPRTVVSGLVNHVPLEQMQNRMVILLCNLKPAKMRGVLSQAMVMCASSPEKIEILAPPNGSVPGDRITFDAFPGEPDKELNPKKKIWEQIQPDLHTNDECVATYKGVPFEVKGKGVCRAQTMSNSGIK
# Test: ELISA
substance,measurement,value
FGFR2-flag recombinant protein (from UniProt P21802 22-377) (receptor),binding,binds
